# This is one part of the list.
# B1: truncCC1G-10077 (Coprinopsis cinerea) (protein)
# chain: MHHHHHHHHPLPSPGPGWVLIQNGGTGKFLCSTPSGDIGTADGPETVYDYSVQWRFIQREYTGVYHVVNRATGAYLRQIGTSMPSIGLAEENDDELKDWWMLETYDNSEIGLASIISRWTGNVLDHYGGVSVQALDNNTENSYRSWAIIPARDWLTSFSLVNGQGGLCLAAQYAREETRLSTTANVNDFHAQWVFRKPSGSSGYTIQNKYNNHYVGGTSARWELVVCCNKYFGIRNTSTQKYLAIEDGQVTFQDQDMTDRKQCWELCSGRATDTSGNDYDLIYMDDDLLEVMIPWVGDKQGDLKHYIEKRATKKPPKDKGGWQLPAAGLIKKPKFNDIRQLLQELIEQWEWDVVNEEREQIQTLVSIDEAEARRLLGRRPHPDIVAAYQRSRSSTLFRIDRQGYFNIAGDRYVNIQGQYGDDSYFHIALPVGVRFGREQIRRFLRDSLDRSTSVTITPTTCKPPSGGPDYNRDPDSDGDNSWIKWTIAVVGTSAIKHSEL
# Columns and labels:
# Assay in all cases: glycan array binding signal (z-score within array); higher = stronger binding
# Settings in all cases: glycan notation: IUPAC condensed, linker removed
# [1] = target: Gal(b1-4)GlcNAc(b1-3)Gal(b1-4)GlcNAc(b1-6)[Gal(b1-3)]GalNAc
# Outline: (§1)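 Glycan array data were curated from 3228 arrays in the Consortium for Functional Glycomics database and kept only where the protein sequence was available. Glycan names were converted to IUPAC-condensed notation, and columns mapping to the same glycan were averaged. The binding signal is a within-array Z-score, averaged across arrays of the same protein sequence at different concentrations or buffers and across linkers. Negative Z-scores can be read as non-binding.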
# [2] = target: Gal(b1-4)GlcNAc(b1-3)Gal(b1-4)[Fuc(a1-3)]GlcNAc(b1-3)Gal(b1-4)[Fuc(a1-3)]GlcNAc
# Outline: as §1
# [3] = target: Gal(b1-4)GlcNAc(b1-3)GalNAc
# Outline: as §1
# [4] = target: Gal(b1-4)GlcNAc(b1-3)[Fuc(a1-3)GlcNAc(b1-6)]Gal(b1-4)Glc
# Outline: as §1
# [5] = target: Gal(b1-4)GlcNAc(b1-3)[Gal(b1-4)GlcNAc(b1-6)]Gal(b1-4)GlcNAc
# Outline: as §1
# [6] = target: Gal(b1-4)GlcNAc(b1-3)[GlcNAc(b1-6)]Gal(b1-4)GlcNAc
# Outline: as §1
# [7] = target: Gal(b1-4)GlcNAc(b1-6)Gal(b1-4)GlcNAc
# Outline: as §1
# [8] = target: Gal(b1-4)GlcNAc(b1-6)GalNAc
# Outline: as §1
# [9] = target: Gal(b1-4)GlcNAc(b1-6)[Gal(b1-3)]GalNAc
# Outline: as §1
# [10] = target: Gal(b1-4)GlcNAc(b1-6)[Gal(b1-4)GlcNAc(b1-3)]GalNAc
# Outline: as §1
# [11] = target: Gal(b1-4)GlcNAc6P
# Outline: as §1
# [12] = target: Gal(b1-6)Gal
# Outline: as §1
# [13] = target: Gal3S(b1-3)GalNAc
# Outline: as §1
# [14] = target: Gal3S(b1-3)GlcNAc
# Outline: as §1
# [15] = target: Gal3S(b1-3)[Fuc(a1-4)]GlcNAc
# Outline: as §1
# [16] = target: Gal3S(b1-4)Glc
# Outline: as §1
# [17] = target: Gal3S(b1-4)Glc6S
# Outline: as §1
# [18] = target: Gal3S(b1-4)GlcNAc
# Outline: as §1
# [19] = target: Gal3S(b1-4)[Fuc(a1-3)]Glc6S
# Outline: as §1
# [20] = target: Gal3S(b1-4)[Fuc(a1-3)]GlcNAc
# Outline: as §1
# [21] = target: Gal3S(b1-4)[Fuc(a1-3)]GlcNAc6S
# Outline: as §1
# [22] = target: Gal3S4S(b1-4)GlcNAc
# Outline: as §1
# [23] = target: Gal3S6S(b1-4)GlcNAc
# Outline: as §1
# [24] = target: Gal3S6S(b1-4)GlcNAc6S
# Outline: as §1
# [25] = target: Gal4S(b1-4)GlcNAc
# Outline: as §1
# [26] = target: Gal4S6S(b1-4)GlcNAc
# Outline: as §1
# [27] = target: Gal6P(b1-4)GlcNAc
# Outline: as §1
# [28] = target: Gal6S(b1-3)GlcNAc
# Outline: as §1
# [29] = target: Gal6S(b1-3)GlcNAc6S
# Outline: as §1
# [30] = target: Gal6S(b1-4)Glc
# Outline: as §1
# [31] = target: Gal6S(b1-4)Glc6S
# Outline: as §1
# [32] = target: Gal6S(b1-4)GlcNAc
# Outline: as §1
# [33] = target: Gal6S(b1-4)GlcNAc6S
# Outline: as §1
# [34] = target: GalNAc(a1-3)Gal
# Outline: as §1
# [35] = target: GalNAc(a1-3)GalNAc
# Outline: as §1
# [36] = target: GalNAc(a1-3)GalNAc(b1-3)Gal(a1-4)Gal(b1-4)Glc
# Outline: as §1
# [37] = target: GalNAc(a1-3)GalNAc(b1-3)Gal(a1-4)Gal(b1-4)GlcNAc
# Outline: as §1
binder,measurement,setting,value
B1,glycan array binding signal (z-score),[1],1.52
same,glycan array binding signal (z-score),[2],-0.221
same,glycan array binding signal (z-score),[3],-0.54
same,glycan array binding signal (z-score),[4],-1.18
same,glycan array binding signal (z-score),[5],-0.821
same,glycan array binding signal (z-score),[6],-1.04
same,glycan array binding signal (z-score),[7],-0.211
same,glycan array binding signal (z-score),[8],0.72
same,glycan array binding signal (z-score),[9],0.232
same,glycan array binding signal (z-score),[10],0.073
same,glycan array binding signal (z-score),[11],-0.197
same,glycan array binding signal (z-score),[12],1.23
same,glycan array binding signal (z-score),[13],-1.1
same,glycan array binding signal (z-score),[14],-0.706
same,glycan array binding signal (z-score),[15],1.32
same,glycan array binding signal (z-score),[16],0.989
same,glycan array binding signal (z-score),[17],0.704
same,glycan array binding signal (z-score),[18],-0.212
same,glycan array binding signal (z-score),[19],1.19
same,glycan array binding signal (z-score),[20],-0.266
same,glycan array binding signal (z-score),[21],0.155
same,glycan array binding signal (z-score),[22],-0.524
same,glycan array binding signal (z-score),[23],2.48
same,glycan array binding signal (z-score),[24],1.37
same,glycan array binding signal (z-score),[25],-0.652
same,glycan array binding signal (z-score),[26],-0.428
same,glycan array binding signal (z-score),[27],-0.952
same,glycan array binding signal (z-score),[28],-0.707
same,glycan array binding signal (z-score),[29],0.57
same,glycan array binding signal (z-score),[30],-0.548
same,glycan array binding signal (z-score),[31],0.984
same,glycan array binding signal (z-score),[32],-1.15
same,glycan array binding signal (z-score),[33],0.286
same,glycan array binding signal (z-score),[34],-0.798
same,glycan array binding signal (z-score),[35],-0.315
same,glycan array binding signal (z-score),[36],-0.542
same,glycan array binding signal (z-score),[37],-0.634

# Shown tab-delimited: part of the list above.
binder	measurement	setting	value
B1	glycan array binding signal (z-score)	[1]	1.52
same	glycan array binding signal (z-score)	[2]	-0.221
